No constants are given. Whether binding was seen depends on the method and setting. In cells and extracts the contact can be indirect. These calls come from enrichment with a bait or labelling near it, and not all partners need be listed.
Assays:
His6-GST-PACRG (human) = His6-GST-PACRG (human) (UniProt Q96M98); experiment: affinity purification with mass spectrometry; purified His6-tagged bait coupled to Ni2+-charged resin (2 h, 4 °C), incubated 2 h with supernatant of HEK293T cell lysate, washed three times with 5 mM imidazole; bound proteins identified by LC-MS/MS; controls: Ni2+-charged resin alone (for His6-PACRG) and His6-GST (for His6-GST-PACRG); only proteins found with both baits accepted; only the target purified
[1] = biological target: His6-PACRG (Parkin co-regulated gene) (human) (UniProt Q96M98); experiment: as above

Amino acid sequences for entries named in this document (tags omitted). A change or cut given only in a name is not applied to a line headed by its entry. Chains listed by the source or under a name are the forms on record and can include a tag or linker.
His6-PACRG (Parkin co-regulated gene) (Q96M98, form named): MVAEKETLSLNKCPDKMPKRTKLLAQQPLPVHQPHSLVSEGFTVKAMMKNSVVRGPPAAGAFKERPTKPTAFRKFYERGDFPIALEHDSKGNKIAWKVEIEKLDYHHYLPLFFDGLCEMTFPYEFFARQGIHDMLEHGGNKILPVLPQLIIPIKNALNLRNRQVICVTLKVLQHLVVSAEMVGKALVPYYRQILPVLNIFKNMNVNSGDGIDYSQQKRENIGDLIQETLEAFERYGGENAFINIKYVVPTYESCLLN

binding (His6-GST-PACRG (human))	binding [1]	Binder
binds	binds	CSTF2 (protein, UniProt P33240 1-577) MAGLTVRDPAVDRSLRSVFVGNIPYEATEEQLKDIFSEVGPVVSFRLVYDRETGKPKGYGFCEYQDQETALSAMRNLNGREFSGRALRVDNAASEKNKEELKSLGTGAPVIESPYGETISPEDAPESISKAVASLPPEQMFELMKQMKLCVQNSPQEARNMLLQNPQLAYALLQAQVVMRIVDPEIALKILHRQTNIPTLIAGNPQPVHGAGPGSGSNVSMNQQNPQAPQAQSLGGMHVNGAPPLMQASMQGGVPAPGQMPAAVTGPGPGSLAPGGGMQAQVGMPGSGPVSMERGQVPMQDPRAAMQRGSLPANVPTPRGLLGDAPNDPRGGTLLSVTGEVEPRGYLGPPHQGPPMHHVPGHESRGPPPHELRGGPLPEPRPLMAEPRGPMLDQRGPPLDGRGGRDPRGIDARGMEARAMEARGLDARGLEARAMEARAMEARAMEARAMEARAMEVRGMEARGMDTRGPVPGPRGPIPSGMQGPSPINMGAVVPQGSRQVPVMQGTGMQGASIQGGSQPGGFSPGQNQVTPQDHEKAALIMQVLQLTADQIAMLPPEQRQSILILKEQIQKSTGAP
binds	binds	UBP1 (protein, UniProt Q9NZI7 1-540) MAWVLKMDEVIESGLVHDFDASLSGIGQELGAGAYSMSDVLALPIFKQEDSSLPLDGETEHPPFQYVMCAATSPAVKLHDETLTYLNQGQSYEIRMLDNRKMGDMPEINGKLVKSIIRVVFHDRRLQYTEHQQLEGWKWNRPGDRLLDLDIPMSVGIIDTRTNPSQLNAVEFLWDPAKRTSAFIQVHCISTEFTPRKHGGEKGVPFRIQVDTFKQNENGEYTDHLHSASCQIKVFKPKGADRKQKTDREKMEKRTAHEKEKYQPSYDTTILTEMRLEPIIEDAVEHEQKKSSKRTLPADYGDSLAKRGSCSPWPDAPTAYVNNSPSPAPTFTSPQQSTCSVPDSNSSSPNHQGDGASQTSGEQIQPSATIQETQQWLLKNRFSSYTRLFSNFSGADLLKLTKEDLVQICGAADGIRLYNSLKSRSVRPRLTIYVCREQPSSTVLQGQQQAASSASENGSGAPYVYHAIYLEEMIASEVARKLALVFNIPLHQINQVYRQGPTGIHILVSDQMVQNFQDESCFLFSTVKAESSDGIHIILK
binds	binds	SF1 (protein, UniProt Q15637 1-639) MATGANATPLDFPSKKRKRSRWNQDTMEQKTVIPGMPTVIPPGLTREQERAYIVQLQIEDLTRKLRTGDLGIPPNPEDRSPSPEPIYNSEGKRLNTREFRTRKKLEEERHNLITEMVALNPDFKPPADYKPPATRVSDKVMIPQDEYPEINFVGLLIGPRGNTLKNIEKECNAKIMIRGKGSVKEGKVGRKDGQMLPGEDEPLHALVTANTMENVKKAVEQIRNILKQGIETPEDQNDLRKMQLRELARLNGTLREDDNRILRPWQSSETRSITNTTVCTKCGGAGHIASDCKFQRPGDPQSAQDKARMDKEYLSLMAELGEAPVPASVGSTSGPATTPLASAPRPAAPANNPPPPSLMSTTQSRPPWMNSGPSESRPYHGMHGGGPGGPGGGPHSFPHPLPSLTGGHGGHPMQHNPNGPPPPWMQPPPPPMNQGPHPPGHHGPPPMDQYLGSTPVGSGVYRLHQGKGMMPPPPMGMMPPPPPPPSGQPPPPPSGPLPPWQQQQQQPPPPPPPSSSMASSTPLPWQQNTTTTTTSAGTGSIPPWQQQQAAAAASPGAPQMQGNPTMVPLPPGVQPPLPPGAPPPPPPPPPGSAGMMYAPPPPPPPPMDPSNFVTMMGMGVAGMPPFGMPPAPPPPPPQN
binds	binds	HOMER1 (protein, UniProt Q86YM7 1-354) MGEQPIFSTRAHVFQIDPNTKKNWVPTSKHAVTVSYFYDSTRNVYRIISLDGSKAIINSTITPNMTFTKTSQKFGQWADSRANTVYGLGFSSEHHLSKFAEKFQEFKEAARLAKEKSQEKMELTSTPSQESAGGDLQSPLTPESINGTDDERTPDVTQNSEPRAEPTQNALPFSHSSAISKHWEAELATLKGNNAKLTAALLESTANVKQWKQQLAAYQEEAERLHKRVTELECVSSQANAVHTHKTELNQTIQELEETLKLKEEEIERLKQEIDNARELQEQRDSLTQKLQEVEIRNKDLEGQLSDLEQRLEKSQNEQEAFRNNLKTLLEILDGKIFELTELRDNLAKLLECS
binds	binds	RNPS1 (protein, UniProt Q15287 1-305) MDLSGVKKKSLLGVKENNKKSSTRAPSPTKRKDRSDEKSKDRSKDKGATKESSEKDRGRDKTRKRRSASSGSSSTRSRSSSTSSSGSSTSTGSSSGSSSSSASSRSGSSSTSRSSSSSSSSGSPSPSRRRHDNRRRSRSKSKPPKRDEKERKRRSPSPKPTKVHIGRLTRNVTKDHIMEIFSTYGKIKMIDMPVERMHPHLSKGYAYVEFENPDEAEKALKHMDGGQIDGQEITATAVLAPWPRPPPRRFSPPRRMLPPPPMWRRSPPRMRRRSRSPRRRSPVRRRSRSPGRRRHRSRSSSNSSR
binds	binds	USP39 (protein, UniProt Q53GS9 1-565) MSGRSKRESRGSTRGKRESESRGSSGRVKRERDREREPEAASSRGSPVRVKREFEPASAREAPASVVPFVRVKREREVDEDSEPEREVRAKNGRVDSEDRRSRHCPYLDTINRSVLDFDFEKLCSISLSHINAYACLVCGKYFQGRGLKSHAYIHSVQFSHHVFLNLHTLKFYCLPDNYEIIDSSLEDITYVLKPTFTKQQIANLDKQAKLSRAYDGTTYLPGIVGLNNIKANDYANAVLQALSNVPPLRNYFLEEDNYKNIKRPPGDIMFLLVQRFGELMRKLWNPRNFKAHVSPHEMLQAVVLCSKKTFQITKQGDGVDFLSWFLNALHSALGGTKKKKKTIVTDVFQGSMRIFTKKLPHPDLPAEEKEQLLHNDEYQETMVESTFMYLTLDLPTAPLYKDEKEQLIIPQVPLFNILAKFNGITEKEYKTYKENFLKRFQLTKLPPYLIFCIKRFTKNNFFVEKNPTIVNFPITNVDLREYLSEEVQAVHKNTTYDLIANIVHDGKPSEGSYRIHVLHHGTGKWYELQDLQVTDILPQMITLSEAYIQIWKRRDNDETNQQGA
binds	binds	SNW1 (protein, UniProt Q13573 1-536) MALTSFLPAPTQLSQDQLEAEEKARSQRSRQTSLVSSRREPPPYGYRKGWIPRLLEDFGDGGAFPEIHVAQYPLDMGRKKKMSNALAIQVDSEGKIKYDAIARQGQSKDKVIYSKYTDLVPKEVMNADDPDLQRPDEEAIKEITEKTRVALEKSVSQKVAAAMPVRAADKLAPAQYIRYTPSQQGVAFNSGAKQRVIRMVEMQKDPMEPPRFKINKKIPRGPPSPPAPVMHSPSRKMTVKEQQEWKIPPCISNWKNAKGYTIPLDKRLAADGRGLQTVHINENFAKLAEALYIADRKAREAVEMRAQVERKMAQKEKEKHEEKLREMAQKARERRAGIKTHVEKEDGEARERDEIRHDRRKERQHDRNLSRAAPDKRSKLQRNENRDISEVIALGVPNPRTSNEVQYDQRLFNQSKGMDSGFAGGEDEIYNVYDQAWRGGKDMAQSIYRPSKNLDKDMYGDDLEARIKTNRFVPDKEFSGSDRRQRGREGPVQFEEDPFGLDKFLEEAKQHGGSKRPSDSSRPKEHEHEGKKRRKE
binds	binds	TRIP4 (protein, UniProt Q15650 1-581) MAVAGAVSGEPLVHWCTQQLRKTFGLDVSEEIIQYVLSIESAEEIREYVTDLLQGNEGKKGQFIEELITKWQKNDQELISDPLQQCFKKDEILDGQKSGDHLKRGRKKGRNRQEVPAFTEPDTTAEVKTPFDLAKAQENSNSVKKKTKFVNLYTREGQDRLAVLLPGRHPCDCLGQKHKLINNCLICGRIVCEQEGSGPCLFCGTLVCTHEEQDILQRDSNKSQKLLKKLMSGVENSGKVDISTKDLLPHQELRIKSGLEKAIKHKDKLLEFDRTSIRRTQVIDDESDYFASDSNQWLSKLERETLQKREEELRELRHASRLSKKVTIDFAGRKILEEENSLAEYHSRLDETIQAIANGTLNQPLTKLDRSSEEPLGVLVNPNMYQSPPQWVDHTGAASQKKAFRSSGFGLEFNSFQHQLRIQDQEFQEGFDGGWCLSVHQPWASLLVRGIKRVEGRSWYTPHRGRLWIAATAKKPSPQEVSELQATYRLLRGKDVEFPNDYPSGCLLGCVDLIDCLSQKQFKEQFPDISQESDSPFVFICKNPQEMVVKFPIKGNPKIWKLDSKIHQGAKKGLMKQNKAV
